Here are results for two substances from publication PMC8055684.

Chains of the proteins cited; added tags and fusions are not shown.
UniProt Q9H0A8: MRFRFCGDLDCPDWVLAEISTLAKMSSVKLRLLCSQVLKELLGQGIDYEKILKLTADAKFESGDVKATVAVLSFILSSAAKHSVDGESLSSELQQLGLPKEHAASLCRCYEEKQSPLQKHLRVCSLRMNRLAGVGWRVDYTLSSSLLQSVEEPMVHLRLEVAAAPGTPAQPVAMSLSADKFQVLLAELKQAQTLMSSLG
UniProt Q9BQ15: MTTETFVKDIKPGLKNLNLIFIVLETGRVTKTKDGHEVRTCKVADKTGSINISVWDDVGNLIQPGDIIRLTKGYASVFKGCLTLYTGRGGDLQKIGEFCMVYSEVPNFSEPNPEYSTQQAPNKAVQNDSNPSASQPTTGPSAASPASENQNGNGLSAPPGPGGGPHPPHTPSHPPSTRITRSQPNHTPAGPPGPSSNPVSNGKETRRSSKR
UniProt Q5VTR2: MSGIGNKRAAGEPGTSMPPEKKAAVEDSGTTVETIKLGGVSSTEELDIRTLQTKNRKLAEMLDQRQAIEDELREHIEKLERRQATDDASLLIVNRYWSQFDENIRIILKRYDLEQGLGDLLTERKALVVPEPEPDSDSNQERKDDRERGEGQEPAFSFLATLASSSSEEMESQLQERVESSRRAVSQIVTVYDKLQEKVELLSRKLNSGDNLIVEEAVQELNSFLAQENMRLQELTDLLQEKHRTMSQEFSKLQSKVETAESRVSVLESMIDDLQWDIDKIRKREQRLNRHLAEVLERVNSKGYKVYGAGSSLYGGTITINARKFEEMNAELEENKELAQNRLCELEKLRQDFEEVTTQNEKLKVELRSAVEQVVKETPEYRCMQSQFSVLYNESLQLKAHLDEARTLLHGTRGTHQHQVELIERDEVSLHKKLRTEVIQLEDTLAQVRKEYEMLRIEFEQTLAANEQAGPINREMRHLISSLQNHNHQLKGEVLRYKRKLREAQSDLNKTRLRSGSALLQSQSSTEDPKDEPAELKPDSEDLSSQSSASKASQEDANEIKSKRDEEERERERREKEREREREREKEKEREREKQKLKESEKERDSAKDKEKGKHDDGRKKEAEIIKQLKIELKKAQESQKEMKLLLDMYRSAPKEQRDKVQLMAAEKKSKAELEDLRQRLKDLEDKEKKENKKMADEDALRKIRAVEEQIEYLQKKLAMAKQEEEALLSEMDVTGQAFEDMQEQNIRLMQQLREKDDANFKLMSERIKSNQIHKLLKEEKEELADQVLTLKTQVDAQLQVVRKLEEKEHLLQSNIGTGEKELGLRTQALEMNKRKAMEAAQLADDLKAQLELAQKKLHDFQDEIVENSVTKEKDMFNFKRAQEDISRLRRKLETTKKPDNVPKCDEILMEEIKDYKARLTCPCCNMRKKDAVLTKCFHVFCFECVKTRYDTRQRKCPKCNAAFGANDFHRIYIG

For assay [1], the target named is COMMD4-FLAG (UniProt Q9H0A8). Nature of the assay: co-IP; COMMD4 and hSSB1 in cells; bait and constructs not shown (Supplementary Fig. 4a).
For assay [2], the target named is COMMD4, purified (construct not stated; in vitro binding assay with RNF20 and RNF40) (UniProt Q9H0A8). Nature of the assay: in vitro binding assay; purified proteins; COMMD4 with RNF20 or RNF40; details not shown (Supplementary Fig. 4d-f); both purified.

These are yes or no findings as the source states them, for the method shown. For some assays here: Binding seen in cells or lysates may run through a third protein. Some entries that bind do so weakly or less than the wild type.

In the case of “hSSB1 in cells (co-immunoprecipitation) (from UniProt Q9BQ15 1-211)”, the binding entry in assay [1] was “binds”.
Take “recombinant active human RNF20 (from UniProt Q5VTR2 1-975) (enzyme)”: the binding entry in assay [2] was “binds”.
